According to the supplement of paper PMC4604168 (melanoma cell lines):
The list shows a part of the results. Many values rest on one well or one pass, so single values are uncertain.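 The apoptosis fraction was the count of cleaved-PARP antibody-stained nuclei relative to all DNA-stained nuclei, imaged in 1,536-well plates. Screening doses were set so most cells survived, and baseline and induced cleaved-PARP levels vary greatly across cell lines.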

Tests used:
Assay in all cases: cleaved PARP positive nuclei fraction relative to DMSO control; melanoma cells; higher = more apoptosis
Settings in all cases: library dose: low library concentration; 72 h
501Mel = tested on: 501Mel
A101D = tested on: A101D
A2058 = tested on: A2058
A375 = tested on: A375
C32 = tested on: C32
CBRC008 = tested on: CBRC008 (line from a melanoma biopsy)
CBRC014 = tested on: CBRC014 (line from a melanoma biopsy)
CBRC016 = tested on: CBRC016 (line from a melanoma biopsy)
CBRC017 = tested on: CBRC017 (line from a melanoma biopsy)
CBRC034 = tested on: CBRC034 (line from a melanoma biopsy)
COLO792 = tested on: COLO792
COLO800 = tested on: COLO800
COLO829 = tested on: COLO829
G361 = tested on: G361
IPC-298 = tested on: IPC-298
IST-MEL1 = tested on: IST-MEL1
LB2518-MEL = tested on: LB2518-MEL
LOXIMVI = tested on: LOXIMVI
MEL-HO = tested on: MEL-HO

Compound	cleaved PARP positive nuclei fraction (501Mel)	cleaved PARP positive nuclei fraction (A101D)	cleaved PARP positive nuclei fraction (A2058)	cleaved PARP positive nuclei fraction (A375)	cleaved PARP positive nuclei fraction (C32)	cleaved PARP positive nuclei fraction (CBRC008)	cleaved PARP positive nuclei fraction (CBRC014)	cleaved PARP positive nuclei fraction (CBRC016)	cleaved PARP positive nuclei fraction (CBRC017)	cleaved PARP positive nuclei fraction (CBRC034)	cleaved PARP positive nuclei fraction (COLO792)	cleaved PARP positive nuclei fraction (COLO800)	cleaved PARP positive nuclei fraction (COLO829)	cleaved PARP positive nuclei fraction (G361)	cleaved PARP positive nuclei fraction (IPC-298)	cleaved PARP positive nuclei fraction (IST-MEL1)	cleaved PARP positive nuclei fraction (LB2518-MEL)	cleaved PARP positive nuclei fraction (LOXIMVI)	cleaved PARP positive nuclei fraction (MEL-HO)
Cc1cc(Nc2cc(N3CCN(C)CC3)nc(Sc3ccc(NC(=O)C4CC4)cc3)n2)n[nH]1 [Tozasertib] + Clc1ccc(Nc2nnc(Cc3ccncc3)c3ccccc23)cc1 [vatalanib] (first compound 0.006 µM, partner dose 2 µM)	47.6%	129%	91.7%	93.6%	91.7%	85.9%	138%	152%	100%	97.2%	145%	118%	34.1%	71.9%	44.5%	64.8%	110%	103%	69.6%
Cc1cn(-c2cc(NC(=O)c3ccc(C)c(Nc4nccc(-c5cccnc5)n4)c3)cc(C(F)(F)F)c2)cn1 [nilotinib] + Nc1ccn([C@@H]2O[C@H](CO)[C@@H](O)C2(F)F)c(=O)n1 [gemcitabine] (first compound 0.2 µM, partner dose 0.0004 µM)	292%	93.1%	54.9%	180%	78.4%	35.4%	117%	40.2%	79.6%	50.4%	34.6%	92.2%	87.3%	127%	45.2%	69.3%	104%	52%	187%
CCCCCCCCCCCCCCCCCCOP(=O)([O-])OC1CC[N+](C)(C)CC1 [Perifosine] + CC1(C)CCC(c2ccc(Cl)cc2)=C(CN2CCN(c3ccc(C(=O)NS(=O)(=O)c4ccc(N[C@H](CCN5CCOCC5)CSc5ccccc5)c(S(=O)(=O)C(F)(F)F)c4)cc3)CC2)C1 [ABT263] (first compound 0.4 µM, partner dose 0.4 µM)	129%	94.2%	342%	2130%	865%	397%	802%	534%	571%	130%	342%	171%	62.7%	108%	231%	572%	87.4%	197%	169%
COc1cc([C@@H]2c3cc4c(cc3[C@@H](O[C@@H]3O[C@@H]5CO[C@@H](C)O[C@H]5[C@H](O)[C@H]3O)[C@H]3COC(=O)[C@H]23)OCO4)cc(OC)c1O [etoposide] + C[C@]1(O)C[C@@H](c2nc(-c3ccc4ccc(-c5ccccc5)nc4c3)c3c(N)nccn32)C1 [OSI906] (first compound 0.02 µM, partner dose 0.4 µM)	81.9%	64.2%	409%	267%	80%	79%	103%	23.9%	84.3%	30.6%	14.1%	143%	71.9%	101%	47.2%	61.6%	53.8%	146%	160%
O=C(Nc1cc(C(F)(F)F)cc(C(F)(F)F)c1)c1cc(Cl)ccc1O + Cc1nc(Nc2ncc(C(=O)Nc3c(C)cccc3Cl)s2)cc(N2CCN(CCO)CC2)n1 [dasatanib] (first compound 0.016 µM, partner dose 0.004 µM)	80.3%	115%	118%	250%	51.1%	33.9%	117%	54.9%	84.8%	51.9%	76.4%	79.5%	132%	135%	88.3%	20.9%	101%	25.6%	67.6%
Cc1cc(Nc2cc(N3CCN(C)CC3)nc(Sc3ccc(NC(=O)C4CC4)cc3)n2)n[nH]1 [Tozasertib] + CO[C@H]1C[C@@H]2CC[C@@H](C)[C@@](O)(O2)C(=O)C(=O)N2CCCC[C@H]2C(=O)O[C@H]([C@H](C)C[C@@H]2CC[C@@H](OCCO)[C@H](OC)C2)CC(=O)[C@H](C)/C=C(\C)[C@@H](O)[C@@H](OC)C(=O)[C@H](C)C[C@H](C)/C=C/C=C/C=C/1C [everolimus] (first compound 0.006 µM, partner dose 0.02 µM)	337%	82.8%	140%	1810%	96.9%	114%	109%	39.5%	108%	77%	178%	103%	173%	141%	110%	69%	149%	113%	285%
CCCCCCCCCCCCCCCCCCOP(=O)([O-])OC1CC[N+](C)(C)CC1 [Perifosine] + CC(=O)O[C@@]12CO[C@@H]1C[C@H](O)[C@@]1(C)C(=O)[C@H](O)C3=C(C)[C@@H](OC(=O)[C@H](O)[C@@H](NC(=O)OC(C)(C)C)c4ccccc4)C[C@@](O)([C@@H](OC(=O)c4ccccc4)[C@H]21)C3(C)C [Docetaxel] (first compound 0.4 µM, partner dose 0.0001 µM)	143%	132%	1930%	2530%	157%	393%	129%	151%	104%	65.5%	631%	239%	369%	321%	119%	82.8%	146%	56.6%	78.9%
CCCCCCCCCCCCCCCCCCOP(=O)([O-])OC1CC[N+](C)(C)CC1 [Perifosine] + Nc1ccn([C@@H]2O[C@H](CO)[C@@H](O)C2(F)F)c(=O)n1 [gemcitabine] (first compound 0.4 µM, partner dose 0.0004 µM)	102%	45.8%	148%	1560%	35%	200%	147%	202%	103%	74.1%	117%	49.3%	103%	155%	131%	252%	237%	64.5%	82.2%
N#CC[C@H](C1CCCC1)n1cc(-c2ncnc3[nH]ccc23)cn1 [ruxolitinib] + O=C(O)[C@@H]1[O][Sb](=[O])([O][Sb]2(=[O])[O][C@H]([C@H](O)CO)[C@H](O)[C@H](C(=O)O)[O]2)[O][C@H]([C@H](O)CO)[C@@H]1O [stibogluconate] (first compound 1 µM, partner dose 2 µM)	74%	304%	69.2%	63.8%	78.7%	99.4%	87.3%	95%	85%	124%	130%	74.2%	99.2%	135%	87.9%	68.4%	78.6%	163%	41.2%
N#CC[C@H](C1CCCC1)n1cc(-c2ncnc3[nH]ccc23)cn1 [ruxolitinib] + Nc1ccn([C@@H]2O[C@H](CO)[C@@H](O)C2(F)F)c(=O)n1 [gemcitabine] (first compound 1 µM, partner dose 0.0004 µM)	99.4%	121%	50.7%	121%	74.7%	126%	141%	272%	319%	72.6%	98.5%	46.7%	72.8%	165%	62.4%	54.9%	93.2%	101%	62.1%
N#CC[C@H](C1CCCC1)n1cc(-c2ncnc3[nH]ccc23)cn1 [ruxolitinib] + COc1ccc(Cl)c(Nc2nc3ccccc3nc2NS(=O)(=O)c2cccc(NC(=O)C(C)(C)N)c2)c1 [XL147] (first compound 1 µM, partner dose 0.8 µM)	160%	170%	229%	128%	73.3%	111%	132%	137%	174%	121%	85.5%	24.2%	80.1%	133%	174%	124%	131%	65.4%	129%
CC[C@]1(O)C[C@H]2CN(CCc3c([nH]c4ccccc34)[C@@](C(=O)OC)(c3cc4c(cc3OC)N(C=O)[C@H]3[C@@](O)(C(=O)OC)[C@H](OC(C)=O)[C@]5(CC)C=CCN6CC[C@]43[C@@H]65)C2)C1 [vincristine] + O=C(/C=C/c1cccnc1)NCCCCC1CCN(C(=O)c2ccccc2)CC1 [FK866] (first compound 0.0001 µM, partner dose 0.01 µM)	36.4%	171%	570%	83.3%	86.5%	2900%	124%	588%	842%	1300%	279%	258%	300%	1980%	180%	184%	128%	69.5%	70.4%
O=C(Nc1cc(C(F)(F)F)cc(C(F)(F)F)c1)c1cc(Cl)ccc1O + Nc1nc(F)nc2c1ncn2[C@@H]1O[C@H](CO)[C@@H](O)[C@@H]1O [fludarabine] (first compound 0.016 µM, partner dose 0.2 µM)	4170%	57.6%	133%	1040%	82.9%	33.6%	97.5%	92.2%	89.5%	101%	50.6%	118%	122%	43.3%	130%	54.5%	87.2%	87%	59.8%
CCCCCCCCCCCCCCCCCCOP(=O)([O-])OC1CC[N+](C)(C)CC1 [Perifosine] + Nc1ncn([C@H]2C[C@H](O)[C@@H](CO)O2)c(=O)n1 [decitabine] (first compound 0.4 µM, partner dose 0.1 µM)	70.2%	98.7%	100%	254%	81.2%	224%	97.4%	237%	114%	61.8%	31.3%	92.3%	84.5%	117%	40.5%	80.2%	113%	87.8%	88.4%
CC[C@]1(O)C[C@H]2CN(CCc3c([nH]c4ccccc34)[C@@](C(=O)OC)(c3cc4c(cc3OC)N(C=O)[C@H]3[C@@](O)(C(=O)OC)[C@H](OC(C)=O)[C@]5(CC)C=CCN6CC[C@]43[C@@H]65)C2)C1 [vincristine] + Nc1ncn([C@H]2C[C@H](O)[C@@H](CO)O2)c(=O)n1 [decitabine] (first compound 0.0001 µM, partner dose 0.1 µM)	87.9%	214%	229%	181%	256%	123%	118%	173%	109%	91.2%	88.1%	94.6%	64.5%	147%	63.2%	35.6%	63.9%	90.1%	146%
O=C(Nc1cc(C(F)(F)F)cc(C(F)(F)F)c1)c1cc(Cl)ccc1O + COCC[n+]1c2c(n(Cc3cnccn3)c1C)C(=O)c1ccccc1C2=O [YM155] (first compound 0.016 µM, partner dose 0.0004 µM)	96.5%	98.1%	144%	72.4%	67.5%	518%	88.9%	159%	117%	84.5%	73.5%	53.7%	80.2%	102%	47.2%	98.5%	213%	42.3%	34.4%

Single entries from the entries so far:
Under cleaved PARP positive nuclei fraction (CBRC016), CCCCCCCCCCCCCCCCCCOP(=O)([O-])OC1CC[N+](C)(C)CC1 [Perifosine] + CC1(C)CCC(c2ccc(Cl)cc2)=C(CN2CCN(c3ccc(C(=O)NS(=O)(=O)c4ccc(N[C@H](CCN5CCOCC5)CSc5ccccc5)c(S(=O)(=O)C(F)(F)F)c4)cc3)CC2)C1 [ABT263] (first compound 0.4 µM, partner dose 0.4 µM) shows 534%
Under cleaved PARP positive nuclei fraction (CBRC016), O=C(Nc1cc(C(F)(F)F)cc(C(F)(F)F)c1)c1cc(Cl)ccc1O + COCC[n+]1c2c(n(Cc3cnccn3)c1C)C(=O)c1ccccc1C2=O [YM155] (first compound 0.016 µM, partner dose 0.0004 µM) shows 159%
